The supplement of paper PMC7666118
The other results are listed elsewhere or left out.

Protein sequences, listed by entry. Tags and fused reporters are not part of them. Lines headed by an entry give the natural chain unless they say otherwise; changes in a name come on top.
UniProt Q9Y316: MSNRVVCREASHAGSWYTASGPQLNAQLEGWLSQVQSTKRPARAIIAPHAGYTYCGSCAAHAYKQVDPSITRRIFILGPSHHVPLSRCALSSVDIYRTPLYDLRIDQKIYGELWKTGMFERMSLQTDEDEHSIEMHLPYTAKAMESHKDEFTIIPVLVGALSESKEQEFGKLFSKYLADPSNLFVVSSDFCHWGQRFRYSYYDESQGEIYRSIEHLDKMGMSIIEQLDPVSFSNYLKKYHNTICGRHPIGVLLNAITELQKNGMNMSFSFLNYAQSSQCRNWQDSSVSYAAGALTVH
UniProt Q9UIS9: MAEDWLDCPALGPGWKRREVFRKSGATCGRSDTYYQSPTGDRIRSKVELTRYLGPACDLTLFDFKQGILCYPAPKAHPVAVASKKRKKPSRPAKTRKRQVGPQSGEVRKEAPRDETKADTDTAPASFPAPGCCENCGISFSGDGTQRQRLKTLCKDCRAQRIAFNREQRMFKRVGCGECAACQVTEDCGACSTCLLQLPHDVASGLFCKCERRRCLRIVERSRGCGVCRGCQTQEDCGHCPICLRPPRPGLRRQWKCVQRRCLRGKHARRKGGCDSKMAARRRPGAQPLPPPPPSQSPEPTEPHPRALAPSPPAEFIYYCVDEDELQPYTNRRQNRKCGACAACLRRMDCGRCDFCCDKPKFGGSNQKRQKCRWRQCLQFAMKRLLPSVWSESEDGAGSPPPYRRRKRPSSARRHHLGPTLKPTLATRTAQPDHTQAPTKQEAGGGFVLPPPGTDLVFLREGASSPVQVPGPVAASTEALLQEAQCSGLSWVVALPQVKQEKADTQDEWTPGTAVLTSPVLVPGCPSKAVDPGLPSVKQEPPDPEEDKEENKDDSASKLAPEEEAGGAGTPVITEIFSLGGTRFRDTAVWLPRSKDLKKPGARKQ
UniProt P31153, whole entry, looked up: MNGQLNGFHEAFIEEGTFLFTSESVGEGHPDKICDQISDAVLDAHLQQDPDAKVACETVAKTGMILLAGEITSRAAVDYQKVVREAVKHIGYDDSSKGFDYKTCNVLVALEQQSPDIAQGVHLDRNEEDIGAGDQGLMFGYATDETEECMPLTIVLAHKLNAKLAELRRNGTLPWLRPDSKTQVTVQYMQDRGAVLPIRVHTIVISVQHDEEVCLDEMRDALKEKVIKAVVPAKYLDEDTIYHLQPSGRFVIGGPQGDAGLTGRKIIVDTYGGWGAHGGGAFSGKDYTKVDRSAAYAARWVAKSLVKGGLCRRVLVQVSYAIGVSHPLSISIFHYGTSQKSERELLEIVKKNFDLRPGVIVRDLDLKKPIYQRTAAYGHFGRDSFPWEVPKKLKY
UniProt Q9Y4K4: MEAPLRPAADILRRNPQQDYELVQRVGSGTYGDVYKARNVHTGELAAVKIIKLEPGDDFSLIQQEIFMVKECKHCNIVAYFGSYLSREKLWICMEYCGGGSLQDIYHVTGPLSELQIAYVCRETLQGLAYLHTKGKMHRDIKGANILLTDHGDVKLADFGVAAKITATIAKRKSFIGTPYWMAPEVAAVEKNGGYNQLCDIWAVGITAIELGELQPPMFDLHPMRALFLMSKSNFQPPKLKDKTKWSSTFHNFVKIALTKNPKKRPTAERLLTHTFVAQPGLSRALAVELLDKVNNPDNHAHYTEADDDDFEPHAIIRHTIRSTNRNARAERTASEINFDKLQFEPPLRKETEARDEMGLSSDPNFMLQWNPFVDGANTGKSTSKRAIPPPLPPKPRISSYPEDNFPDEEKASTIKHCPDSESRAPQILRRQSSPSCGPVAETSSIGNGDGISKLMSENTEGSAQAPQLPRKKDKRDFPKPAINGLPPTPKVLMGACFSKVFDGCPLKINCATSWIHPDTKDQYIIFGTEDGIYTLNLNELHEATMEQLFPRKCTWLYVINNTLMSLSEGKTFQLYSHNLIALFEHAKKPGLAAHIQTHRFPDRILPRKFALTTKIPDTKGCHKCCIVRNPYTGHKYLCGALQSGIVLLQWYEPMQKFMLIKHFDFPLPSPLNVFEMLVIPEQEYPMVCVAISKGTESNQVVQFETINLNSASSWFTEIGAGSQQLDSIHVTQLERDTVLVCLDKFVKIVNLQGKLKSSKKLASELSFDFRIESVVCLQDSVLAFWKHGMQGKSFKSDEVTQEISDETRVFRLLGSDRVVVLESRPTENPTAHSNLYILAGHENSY
UniProt Q9H3U5: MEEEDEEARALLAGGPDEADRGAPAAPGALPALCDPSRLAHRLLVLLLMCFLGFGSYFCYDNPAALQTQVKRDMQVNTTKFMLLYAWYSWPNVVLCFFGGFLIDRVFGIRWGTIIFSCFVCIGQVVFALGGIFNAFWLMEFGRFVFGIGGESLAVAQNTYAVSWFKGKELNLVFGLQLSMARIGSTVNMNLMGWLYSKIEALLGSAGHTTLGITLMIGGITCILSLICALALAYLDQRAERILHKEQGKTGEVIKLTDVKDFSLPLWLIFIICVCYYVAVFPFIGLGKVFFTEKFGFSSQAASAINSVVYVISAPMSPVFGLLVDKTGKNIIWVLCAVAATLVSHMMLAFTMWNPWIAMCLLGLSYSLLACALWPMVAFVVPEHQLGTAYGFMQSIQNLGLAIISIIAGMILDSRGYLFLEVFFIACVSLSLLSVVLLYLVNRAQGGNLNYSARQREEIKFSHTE
UniProt Q86U44, whole entry: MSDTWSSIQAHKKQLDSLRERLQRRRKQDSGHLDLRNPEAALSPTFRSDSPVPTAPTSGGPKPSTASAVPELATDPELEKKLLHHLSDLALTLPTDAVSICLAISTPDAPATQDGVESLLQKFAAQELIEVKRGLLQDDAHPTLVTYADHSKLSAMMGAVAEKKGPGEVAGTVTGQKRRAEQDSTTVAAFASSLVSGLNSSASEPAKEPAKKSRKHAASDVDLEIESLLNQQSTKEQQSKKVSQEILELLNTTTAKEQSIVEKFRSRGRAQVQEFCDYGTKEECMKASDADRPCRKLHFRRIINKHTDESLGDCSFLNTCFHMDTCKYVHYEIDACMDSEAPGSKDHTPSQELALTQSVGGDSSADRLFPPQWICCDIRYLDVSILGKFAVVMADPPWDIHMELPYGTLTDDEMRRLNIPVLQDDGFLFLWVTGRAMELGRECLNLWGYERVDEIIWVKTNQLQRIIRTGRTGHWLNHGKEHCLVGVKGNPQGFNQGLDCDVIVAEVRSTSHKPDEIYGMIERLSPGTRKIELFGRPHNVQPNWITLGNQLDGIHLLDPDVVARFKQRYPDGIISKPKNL
UniProt Q9UBG0: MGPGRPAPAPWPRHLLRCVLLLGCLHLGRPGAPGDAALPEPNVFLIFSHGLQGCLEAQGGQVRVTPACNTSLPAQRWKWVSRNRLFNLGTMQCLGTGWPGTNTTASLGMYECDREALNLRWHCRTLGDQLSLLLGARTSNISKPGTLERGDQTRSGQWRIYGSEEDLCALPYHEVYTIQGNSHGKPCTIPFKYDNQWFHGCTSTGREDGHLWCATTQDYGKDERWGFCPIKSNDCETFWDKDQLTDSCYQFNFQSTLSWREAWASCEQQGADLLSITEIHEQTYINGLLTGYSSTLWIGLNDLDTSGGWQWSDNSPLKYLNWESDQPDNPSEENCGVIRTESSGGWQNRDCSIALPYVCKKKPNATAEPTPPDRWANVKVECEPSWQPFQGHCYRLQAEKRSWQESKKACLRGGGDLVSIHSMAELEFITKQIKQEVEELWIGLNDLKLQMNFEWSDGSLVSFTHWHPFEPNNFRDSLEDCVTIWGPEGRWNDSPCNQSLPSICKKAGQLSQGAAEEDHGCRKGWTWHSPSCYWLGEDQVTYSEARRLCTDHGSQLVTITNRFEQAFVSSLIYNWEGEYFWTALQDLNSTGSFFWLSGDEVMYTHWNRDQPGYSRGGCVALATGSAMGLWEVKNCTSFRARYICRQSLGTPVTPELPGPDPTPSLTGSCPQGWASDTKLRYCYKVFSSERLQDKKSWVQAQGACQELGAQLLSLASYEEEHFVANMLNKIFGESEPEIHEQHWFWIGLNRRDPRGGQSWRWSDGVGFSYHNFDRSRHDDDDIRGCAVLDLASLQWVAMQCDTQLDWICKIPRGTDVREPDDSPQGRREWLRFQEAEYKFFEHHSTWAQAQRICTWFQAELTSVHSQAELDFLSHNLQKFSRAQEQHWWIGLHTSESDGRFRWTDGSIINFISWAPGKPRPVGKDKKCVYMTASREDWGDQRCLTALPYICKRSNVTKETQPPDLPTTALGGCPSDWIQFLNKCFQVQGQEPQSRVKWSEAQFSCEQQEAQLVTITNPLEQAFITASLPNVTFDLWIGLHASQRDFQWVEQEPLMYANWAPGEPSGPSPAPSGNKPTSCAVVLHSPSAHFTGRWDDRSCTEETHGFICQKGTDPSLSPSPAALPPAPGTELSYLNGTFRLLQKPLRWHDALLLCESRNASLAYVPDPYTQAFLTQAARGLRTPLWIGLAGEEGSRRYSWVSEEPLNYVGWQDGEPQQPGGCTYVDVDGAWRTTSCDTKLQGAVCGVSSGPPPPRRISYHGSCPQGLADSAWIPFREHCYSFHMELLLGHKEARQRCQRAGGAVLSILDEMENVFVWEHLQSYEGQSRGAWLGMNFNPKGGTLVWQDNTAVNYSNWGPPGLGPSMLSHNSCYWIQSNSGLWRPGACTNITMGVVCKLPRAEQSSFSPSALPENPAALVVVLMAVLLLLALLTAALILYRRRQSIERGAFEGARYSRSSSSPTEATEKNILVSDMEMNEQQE
UniProt Q9NR56: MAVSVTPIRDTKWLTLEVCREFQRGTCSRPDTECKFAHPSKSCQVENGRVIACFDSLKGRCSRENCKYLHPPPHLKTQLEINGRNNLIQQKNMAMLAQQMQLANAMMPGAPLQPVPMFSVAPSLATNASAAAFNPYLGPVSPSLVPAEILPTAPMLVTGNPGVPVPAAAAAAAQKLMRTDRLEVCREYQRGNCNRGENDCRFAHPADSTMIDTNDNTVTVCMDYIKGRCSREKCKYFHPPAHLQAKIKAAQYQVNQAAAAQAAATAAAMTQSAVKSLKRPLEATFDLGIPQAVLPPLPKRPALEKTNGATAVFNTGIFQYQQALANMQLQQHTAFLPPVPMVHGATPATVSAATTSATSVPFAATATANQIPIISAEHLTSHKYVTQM
UniProt A9UHW6: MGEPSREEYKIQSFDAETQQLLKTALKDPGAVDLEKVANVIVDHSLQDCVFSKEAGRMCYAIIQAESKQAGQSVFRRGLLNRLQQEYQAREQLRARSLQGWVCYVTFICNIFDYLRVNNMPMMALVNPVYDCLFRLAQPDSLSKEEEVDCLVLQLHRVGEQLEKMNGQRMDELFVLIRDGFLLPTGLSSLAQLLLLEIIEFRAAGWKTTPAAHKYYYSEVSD
UniProt Q9H3L0: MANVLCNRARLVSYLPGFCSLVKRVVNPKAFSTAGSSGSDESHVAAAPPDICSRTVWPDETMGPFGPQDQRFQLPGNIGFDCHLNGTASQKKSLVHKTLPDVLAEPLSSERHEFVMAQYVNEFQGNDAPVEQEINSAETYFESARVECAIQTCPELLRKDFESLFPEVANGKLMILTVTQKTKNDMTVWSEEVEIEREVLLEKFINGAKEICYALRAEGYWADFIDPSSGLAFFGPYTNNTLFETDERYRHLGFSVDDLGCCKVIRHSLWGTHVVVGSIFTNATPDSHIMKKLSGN
UniProt Q9H944: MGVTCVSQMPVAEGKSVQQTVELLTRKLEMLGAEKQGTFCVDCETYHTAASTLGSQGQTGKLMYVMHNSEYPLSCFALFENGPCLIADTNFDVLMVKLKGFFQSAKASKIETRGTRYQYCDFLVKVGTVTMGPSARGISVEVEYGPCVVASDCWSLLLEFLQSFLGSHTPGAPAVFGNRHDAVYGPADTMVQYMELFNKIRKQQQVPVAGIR
UniProt P10636, whole entry: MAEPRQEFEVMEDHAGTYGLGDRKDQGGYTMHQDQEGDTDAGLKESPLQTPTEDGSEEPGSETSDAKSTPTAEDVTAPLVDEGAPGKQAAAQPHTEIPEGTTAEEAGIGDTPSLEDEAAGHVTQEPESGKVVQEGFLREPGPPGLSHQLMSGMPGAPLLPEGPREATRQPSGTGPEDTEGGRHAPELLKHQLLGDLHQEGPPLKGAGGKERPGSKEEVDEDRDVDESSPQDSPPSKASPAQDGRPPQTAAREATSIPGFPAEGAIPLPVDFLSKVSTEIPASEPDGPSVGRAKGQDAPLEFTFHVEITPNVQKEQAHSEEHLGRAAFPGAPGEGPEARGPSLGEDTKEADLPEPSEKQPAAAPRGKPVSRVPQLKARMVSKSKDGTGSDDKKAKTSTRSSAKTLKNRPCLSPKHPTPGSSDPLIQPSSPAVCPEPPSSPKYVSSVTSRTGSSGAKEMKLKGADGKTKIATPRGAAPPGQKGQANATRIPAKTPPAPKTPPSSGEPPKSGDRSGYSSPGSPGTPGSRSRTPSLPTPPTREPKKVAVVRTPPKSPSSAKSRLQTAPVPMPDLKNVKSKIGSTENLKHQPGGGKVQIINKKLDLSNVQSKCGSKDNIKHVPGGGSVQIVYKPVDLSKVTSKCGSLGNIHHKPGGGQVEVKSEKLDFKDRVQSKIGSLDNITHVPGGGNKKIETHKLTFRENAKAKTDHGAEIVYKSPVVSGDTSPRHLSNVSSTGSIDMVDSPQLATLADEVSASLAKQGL

Compound: COc1ccc(Cn2ccc3ccc(C(=O)NO)cc32)cc1
Experiment: dose-dependent thermal stabilisation call (2D-TPP, DLPTP, 10% FDR) (binary (1 = stabilised)); higher = stabilised by the compound
Conditions: system: HL-60 intact cells; concentration range 0.04-10 µM

Target | dose-dependent thermal stabilisation call
MEMO1 (UniProt Q9Y316) | inactive: 0
MRPL27 (UniProt Q9P0M9) | inactive: 0
MBD1 (UniProt Q9UIS9) | inactive: 0
MAT2A (UniProt P31153) | inactive: 0
MAP4K5 (UniProt Q9Y4K4) | inactive: 0
MFSD1 (UniProt Q9H3U5) | inactive: 0
MRPL15 (UniProt Q9P015) | inactive: 0
MGAT5 (UniProt Q09328) | inactive: 0
MED31 (UniProt Q9Y3C7) | inactive: 0
MGRN1 (UniProt O60291) | inactive: 0
MED24 (UniProt O75448) | inactive: 0
METTL3 (UniProt Q86U44) | inactive: 0
MED16 (UniProt Q9Y2X0) | inactive: 0
MPP6 | inactive: 0
MRPL3 (UniProt P09001) | inactive: 0
MRPS12 (UniProt O15235) | inactive: 0
MRPL12 (UniProt P52815) | active: 1
MRC2 (UniProt Q9UBG0) | inactive: 0
MRPL34 (UniProt Q9BQ48) | inactive: 0

Target | dose-dependent thermal stabilisation call
MBNL1 (UniProt Q9NR56) | inactive: 0
MBOAT7 (UniProt Q96N66) | inactive: 0
MRPL17 (UniProt Q9NRX2) | inactive: 0
MRPL44 (UniProt Q9H9J2) | inactive: 0
MIF4GD (UniProt A9UHW6) | inactive: 0
MGAT1 (UniProt P26572) | inactive: 0
MRPL48 (UniProt Q96GC5) | inactive: 0
MINK1 (UniProt Q8N4C8) | inactive: 0
MMADHC (UniProt Q9H3L0) | inactive: 0
MNAT1 (UniProt P51948) | active: 1
MAP3K2 (UniProt Q9Y2U5) | inactive: 0
MAPK8 (UniProt P45983) | inactive: 0
MED20 (UniProt Q9H944) | inactive: 0
MANEAL (UniProt Q5VSG8) | inactive: 0
MAPK3 (UniProt P27361) | inactive: 0
MAPT (UniProt P10636) | inactive: 0
MAP1S (UniProt Q66K74) | inactive: 0
MED22 (UniProt Q15528) | inactive: 0

Quoted from the listing.
Entry of MGAT1 (UniProt P26572) under dose-dependent thermal stabilisation call: inactive: 0
Entry of MED20 (UniProt Q9H944) under dose-dependent thermal stabilisation call: inactive: 0
